Source: US4703034 (dated 1987)

Assay: general procedure: Boc solid-phase peptide synthesis; BOC-Phe-O-resin (resin=CH2-polystyrene 1% crosslinked with p-divinylbenzene)
Details: late stage modification step

cyclo(Trp-Lys-δ-Orn(COCH2 CH2 CH2 Ph)-Phe)
final HPLC purity: HPLC (97%)
